In PubChem BioAssay AID493014 (National Center for Advancing Translational Sciences (NCATS), 2011):
This is one part of the list. The main result of the screen is listed elsewhere. These columns were measured beside it and carry no call. Most of these compounds were active or inconclusive in the main read-out, so they are no random draw. Words in brackets tell the shape of the fitted curve; partial curves, single points and poor fits give uncertain potencies.

Assay: qHTS Assay to Find Inhibitors of Chronic Active B-Cell Receptor Signaling
Conditions: ABC-DLBCL IkBa-CBG/CBR reporter, luminescence ratio (green luciferase fused to IkBa over red control in TMD8 lymphoma cells), 4 h
Procedure, shortened: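 Doxycycline induced both beetle luciferases in TMD8 lymphoma cells; IKK-driven degradation limits the IkappaBalpha-fused green signal, while red luminescence normalises for cell number and nonspecific effects. Compounds tested up to 46 uM, 4 hrs.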

[1] = measured here: CBR red luminescence, cell number
[2] = measured here: IkBa-CBG green luminescence

Row | Compound | AC50 [1] | AC50 [2]
1 | COc1ccc(NS(=O)(=O)c2cc(NC(=O)CCNC(C)=O)ccc2N2CCOCC2)cc1 | 0.00461 µM [rising, full curve, poor fit] | 
2 | Nc1ccc(-c2nc3c(Cl)cc(N)cc3[nH]2)cc1 | 0.794 µM [falling, full curve, poor fit] | 
3 | CC(C)Cc1ccc(/C=C/C(=O)N2CCCCC2)cc1 | 1.12 µM [rising, full curve] | 
4 | O=c1[nH]c(CN2CCN(S(=O)(=O)c3ccc4c(c3)OCCO4)CC2)nc2sc3c(c12)CCCC3 | 13 µM [rising, partial curve, poor fit] | 
5 | CC(C)NC(=O)c1ccc2c(c1)S(=O)(=O)c1ccccc1C2=O | 0.82 µM [rising, partial curve, poor fit] | 
6 | CN1CCC(N(C)C(=O)c2cc(-c3ccccc3Cl)nc3ccccc23)CC1 | 5.8 µM [rising, partial curve, poor fit] | 
7 | COc1ccccc1CN1C[C@@H]2C[C@@H](c3[nH]c4c(C)cccc4c3C)N3CCC[C@@]23C1=O | 25.1 µM [falling, single point] | 
8 | O=C(Nc1cccc2ccccc12)c1ccc([N+](=O)[O-])s1 | 9.2 µM [falling, partial curve] | 
9 | O=S(=O)(Cc1ccc(Cl)cc1)C1CCCCC1O (configuration not stated) | 35.5 µM [rising, single point] | 
10 | COc1ccc(-c2nc(CN3CCCCC3c3nccn3C)c(C)o2)c(C)c1C (configuration not stated) | 35.5 µM [rising, single point] | 
11 | O=C(CSc1nnc2c(n1)[nH]c1ccccc12)Nc1nncs1 | 35.5 µM [falling, single point] | 
12 | Cc1c(C(=O)Nc2nc3ccccc3[nH]2)oc2ccccc12 | 9.2 µM [falling, partial curve] | 20.6 µM [falling, partial curve, poor fit]
13 | O=C(Nc1ccc(N2CCN(C(=O)c3ccccc3F)CC2)cc1)c1cncc(Br)c1 | 10 µM [falling, partial curve, poor fit] | 
14 | Cc1cc(=O)oc2c(C)c(OC(C)C(=O)NCCCn3ccnc3)ccc12 (configuration not stated) | 3.16 µM [falling, single point] | 
15 | Cc1ccc(C(C(=O)NC2CCCC2)N(C(=O)Cc2cccs2)c2ccc(C)c(C)c2)o1 (configuration not stated) | 9.2 µM [falling, single point] | 
16 | COc1ccc2cc(CN(C(=O)Nc3ccccc3OC)C3CCCC3)c(=O)[nH]c2c1 | 7.08 µM [falling, full curve] | 
17 | C=CCc1cccc2cc(-c3nc4ccc(C(=O)O)cc4[nH]3)c(=O)oc12 | 0.501 µM [falling, full curve, poor fit] | 
18 | O=C(Nc1ccccc1Br)c1cc(S(=O)(=O)NC2CCCCC2)ccc1F | 35.5 µM [falling, single point] | 
19 | Cc1nnc(NC(=O)CSC2=NN3CCCC(=O)N=C3S2)s1 | 25.1 µM [rising, single point] | 
20 | N#Cc1cc2c(nc1SCC(=O)Nc1nccs1)CCCCC2 | 0.184 µM [falling, full curve, poor fit] | 
21 | CCCc1nc2ccccc2c(=O)n1CCc1ccccc1 | 25.1 µM [falling, single point] | 

Retrieved one by one from the entries so far:
Row | Compound | AC50 [1] | AC50 [2]
3 | CC(C)Cc1ccc(/C=C/C(=O)N2CCCCC2)cc1 | 1.12 µM [rising, full curve] | 
9 | O=S(=O)(Cc1ccc(Cl)cc1)C1CCCCC1O (configuration not stated) | 35.5 µM [rising, single point] | 

Continued:

Row | Compound | AC50 [1] | AC50 [2]
22 | Cc1ccsc1C(=O)NCC(=O)OCc1ccccc1 | 22.4 µM [falling, partial curve, poor fit] | 
23 | C/C(=N\N=C(N)N)c1ccc(Cl)cc1Cl | 35.5 µM [falling, single point] | 
24 | Cc1ccc(-n2c(-c3c(-c4ccccc4)noc3C)n[nH]c2=S)cc1 | 6.51 µM [rising, single point] | 
25 | CN(C)/C=C/C(=O)Oc1ccc(Cl)cc1Cl | 22.4 µM [rising, single point] | 
26 | CN(CC#CC1(O)c2ccccc2-c2ccccc21)Cc1ccccc1 | 2.06 µM [rising, full curve, poor fit] | 
27 | CN(C)CCCN(C(=O)c1ccc(S(=O)(=O)N2CCc3ccccc3C2)cc1)c1nc2ccc(F)cc2s1 | 3.16 µM [falling, partial curve] | 
28 | Cc1cnc(NC(=O)COc2ccccc2)s1 | 12.6 µM [falling, partial curve] | 
29 | C=CCn1c(=O)c(C(=O)Nc2ccccc2O)c(O)c2ccccc21 | 5.01 µM [falling, full curve] | 
30 | C=CCNc1nc(Nc2ccc(OC)cc2)nc(OCC)n1 | 1.16 µM [rising, partial curve] | 
31 | COc1cc(/C=N/NC(=O)c2[nH]nc3c2CCc2ccccc2-3)ccc1O |  | 29.1 µM [falling, single point]
32 | CCOC(=O)c1c(C)oc2c1cc(O)c1ccccc12 | 6.31 µM [rising, partial curve] | 
33 | CSCCC(NC(=O)c1cc(S(=O)(=O)N2CCOCC2)ccc1F)c1nc2ccccc2[nH]1 (configuration not stated) | 5.8 µM [falling, partial curve, poor fit] | 
34 | O=C(Cc1cccs1)Nc1cccc(-c2nc3ccccc3[nH]2)c1 | 32.6 µM [falling, single point] | 
35 | COc1cc(NC(=O)CN2CCN(S(=O)(=O)/C=C/c3ccccc3)CC2)cc(OC)c1OC | 29.1 µM [falling, partial curve, poor fit] | 
36 | COc1ccccc1S(=O)(=O)Cc1ccc(C(=O)N2CCN(c3ccccc3)CC2)o1 | 3.16 µM [rising, single point] | 
37 | COc1ccc(/C=N/n2cc(-c3ccccc3)nc2N)cc1 | 7.31 µM [falling, partial curve] | 
38 | O=Cc1ccc(OCc2nnsc2Cl)cc1 | 2.82 µM [falling, partial curve, poor fit] | 
39 | O=C(NCCSc1ccccc1)c1ccccc1 | 1.46 µM [rising, full curve] | 
40 | CN(C)S(=O)(=O)c1ccc(N2CCCC2)c(C(=O)NNC(=O)COc2ccccc2Cl)c1 | 0.651 µM [rising, full curve, poor fit] | 
41 | COc1cccc(C(=O)CC(=O)C(=O)Nc2cc(OC)ccc2OC)c1 | 0.501 µM [rising, full curve, poor fit] | 
